Article PMC7984809
No constants are given. Whether binding was seen depends on the method and setting. In cells and extracts the contact can be indirect. Some binding calls cover weakened binding; strength is not graded here.

Amino acid sequences for entries named in this document (tags omitted).
UniProt Q13263: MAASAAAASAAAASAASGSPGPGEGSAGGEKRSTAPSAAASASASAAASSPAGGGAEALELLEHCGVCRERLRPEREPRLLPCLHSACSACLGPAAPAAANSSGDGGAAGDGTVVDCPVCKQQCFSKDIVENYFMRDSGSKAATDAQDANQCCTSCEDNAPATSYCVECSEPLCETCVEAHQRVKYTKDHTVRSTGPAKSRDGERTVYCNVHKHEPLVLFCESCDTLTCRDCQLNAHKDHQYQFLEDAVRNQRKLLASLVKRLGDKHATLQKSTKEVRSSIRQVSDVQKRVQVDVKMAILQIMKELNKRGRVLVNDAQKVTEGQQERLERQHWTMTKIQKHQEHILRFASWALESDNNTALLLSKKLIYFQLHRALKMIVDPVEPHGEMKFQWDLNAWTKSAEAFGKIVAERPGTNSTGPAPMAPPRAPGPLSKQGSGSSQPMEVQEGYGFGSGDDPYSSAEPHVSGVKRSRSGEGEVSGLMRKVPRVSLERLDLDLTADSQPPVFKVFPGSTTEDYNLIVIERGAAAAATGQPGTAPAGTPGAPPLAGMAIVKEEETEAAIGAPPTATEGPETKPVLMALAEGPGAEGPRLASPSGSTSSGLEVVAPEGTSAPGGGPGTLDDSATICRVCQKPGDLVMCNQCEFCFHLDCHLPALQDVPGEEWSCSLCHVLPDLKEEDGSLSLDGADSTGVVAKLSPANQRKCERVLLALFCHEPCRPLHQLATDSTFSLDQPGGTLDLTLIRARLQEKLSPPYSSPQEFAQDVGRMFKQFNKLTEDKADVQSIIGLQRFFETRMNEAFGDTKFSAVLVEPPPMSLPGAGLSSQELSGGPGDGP

Biological target: GFP-TRIM28 (UniProt Q13263)
Experiment: co-IP; GFP-vector or GFP-TRIM28 transfected U2OS-TRE cells, with or without IR; pulled down by anti-GFP, immunoblotted with anti-TRDMT1

binding: binds
B1: TRDMT1 (protein, UniProt O14717 1-391)
chain: MEPLRVLELYSGVGGMHHALRESCIPAQVVAAIDVNTVANEVYKYNFPHTQLLAKTIEGITLEEFDRLSFDMILMSPPCQPFTRIGRQGDMTDSRTNSFLHILDILPRLQKLPKYILLENVKGFEVSSTRDLLIQTIENCGFQYQEFLLSPTSLGIPNSRLRYFLIAKLQSEPLPFQAPGQVLMEFPKIESVHPQKYAMDVENKIQEKNVEPNISFDGSIQCSGKDAILFKLETAEEIHRKNQQDSDLSVKMLKDFLEDDTDVNQYLLPPKSLLRYALLLDIVQPTCRRSVCFTKGYGSYIEGTGSVLQTAEDVQVENIYKSLTNLSQEEQITKLLILKLRYFTPKEIANLLGFPPEFGFPEKITVKQRYRLLGNSLNVHVVAKLIKILYE
